Patent publication US8530493B2, “Indolopyridines as Eg5 kinesin modulators” (4SC AG, priority 2006, dated 2013)
Some results were stated once for a whole list of compounds, not compound by compound.

Target: T1, Eg5 kinesin motor domains (Homo sapiens, UniProt P52732)
T1 construct: The ATPase activity of Eg5 kinesin motor domains (Cytoskeleton, cat. No. EG01) can be used; purchased Cytoskeleton EG01
T1 sequence (P52732 18-359 limits assumed): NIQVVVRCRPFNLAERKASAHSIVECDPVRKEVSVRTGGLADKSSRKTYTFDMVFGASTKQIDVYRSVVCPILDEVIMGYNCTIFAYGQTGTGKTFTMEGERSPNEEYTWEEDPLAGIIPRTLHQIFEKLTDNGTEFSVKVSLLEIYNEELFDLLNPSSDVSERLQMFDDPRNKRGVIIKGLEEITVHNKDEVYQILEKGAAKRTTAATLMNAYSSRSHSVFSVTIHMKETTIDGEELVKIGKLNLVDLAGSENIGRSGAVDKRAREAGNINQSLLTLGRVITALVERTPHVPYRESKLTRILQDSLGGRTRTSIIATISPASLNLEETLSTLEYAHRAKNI
Experiment: ATPase activity of Eg5 kinesin motor domains (Malachite green)
Assay type: biochemical
Settings: 300 μM ATP, 30 min, room temperature

CCOc1ccc2[nH]c3c(c2c1)C[C@@]1(C)C(=O)N(CCBr)C(=O)N1[C@@H]3c1cccc(O)c1 (racemic) [Example 22, (3aSR,10RS)-2-(2-Bromo-ethyl)-6-ethoxy-10-(3-hydroxy-phenyl)-3a-methyl-3a,4,9,10-tetrahydro-2,9,10a-triaza-cyclopenta[b]fluorene-1,3-dione]
Inhibition of Eg5 activity, −log IC50: compounds are all ≧6.3 mol/l

COc1ccc2[nH]c3c(c2c1)C[C@@]1(C)C(=O)N(CCBr)C(=O)N1[C@@H]3c1cccc(O)c1 (racemic) [Example 24, (3aSR,10RS)-2-(2-Bromo-ethyl)-10-(3-hydroxy-phenyl)-6-methoxy-3a-methyl-3a,4,9,10-tetrahydro-2,9,10a-triaza-cyclopenta[b]fluorene-1,3-dione]
Inhibition of Eg5 activity, −log IC50: compounds are all ≧6.3 mol/l
